Laboratory results reported in article PMC5799240.
Results are given in words; binding and its absence hold for the method and conditions named. Some results given as binding are weak or reduced against the parent protein; the word gives no strength. Sequences can lack the tags named with a protein.

Molecular target: TRiC subunit CCT6 (yeast (endogenous in BY4741 or BY4742)), P39079
Test: cryo-EM structure; both-ring closed state: purified tagged TRiC incubated with 1 mM ATP, 5 mM MgCl2, 5 mM Al(NO3)3, 30 mM NaF for 1 h at 30 °C before freezing; subunit located by the extra density of its tag; both purified
Conditions: remark: other sources report otherwise

binding: binds
B1: TRiC subunit CCT3 with an internal Strep-CBP-6xHis tag (CCT3-CBP), P39077 1-534 (protein)
chain: MQAPVVFMNASQERTTGRQAQISNITAAKAVADVIRTCLGPKAMLKMLLDPMGGLVLTNDGHAILREIDVAHPAAKSMLELSRTQDEEVGDGTTTVIILAGEILAQCAPYLIEKNIHPVIIIQALKKALTDALEVIKQVSKPVDVENDAAMKKLIQASIGTKYVIHWSEKMCELALDAVKTVRKDLGQTVEGEPNFEIDIKRYVRVEKIPGGDVLDSRVLKGVLLNKDVVHPKMSRHIENPRVVLLDCPLEYKKGESQTNIEIEKEEDWNRILQIEEEQVQLMCEQILAVRPTLVITEKGVSDLAQHYLLKGGCSVLRRVKKSDNNRIARVTGATIVNRVEDLKESDVGTNCGLFKVEMIGDEYFSFLDNCKEPKACTIMLRGGSKDILNEIDRNLQDAMAVARNVMLSPSLSPGGGATEMAVSVKLAEKAKQLEGIQQWPYQAVADAMECIPRTLIQNAGGDPIRLLSQLRAKHAQGNFTTGIDGDKGKIVDMVSYGIWEPEVIKQQSVKTAIESACLLLRVDDIVSGVRKQE
